Assay [1] has as its target T1, T7-ORCA (full-length) (human) (UniProt Q9UFC0).
T1 sequence: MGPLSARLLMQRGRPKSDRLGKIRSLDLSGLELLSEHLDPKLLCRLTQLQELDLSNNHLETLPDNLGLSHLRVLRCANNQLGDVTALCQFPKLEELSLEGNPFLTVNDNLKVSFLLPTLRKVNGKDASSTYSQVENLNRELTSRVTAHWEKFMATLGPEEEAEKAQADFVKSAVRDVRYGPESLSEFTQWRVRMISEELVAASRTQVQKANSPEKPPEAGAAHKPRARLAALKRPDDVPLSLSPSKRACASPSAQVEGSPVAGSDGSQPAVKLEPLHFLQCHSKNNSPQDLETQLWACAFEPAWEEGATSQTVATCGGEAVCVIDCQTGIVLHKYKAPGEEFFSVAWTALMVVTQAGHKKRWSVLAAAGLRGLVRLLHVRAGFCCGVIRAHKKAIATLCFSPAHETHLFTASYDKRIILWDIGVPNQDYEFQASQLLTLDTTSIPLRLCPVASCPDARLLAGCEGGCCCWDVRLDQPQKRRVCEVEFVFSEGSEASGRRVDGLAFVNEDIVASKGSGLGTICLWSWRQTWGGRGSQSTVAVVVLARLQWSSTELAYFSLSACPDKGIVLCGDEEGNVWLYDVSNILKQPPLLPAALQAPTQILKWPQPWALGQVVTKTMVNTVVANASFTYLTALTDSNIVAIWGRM
Kind of assay: co-IP; transient co-transfection in U2OS; IP buffer 50 mM Tris pH 7.4, 150 mM NaCl, 10% glycerol, 0.1% NP-40, 1 mM DTT; antibody-conjugated agarose (ORCA, T7 or HA antibody) overnight; immunoblot; for G9a-Suv39H1 also in control and ORCA siRNA cells.

The chains behind the UniProt entries cited, without tags or fusion partners. Where a name states a change or a piece, a line headed by the entry shows the natural chain unless it says otherwise.
UniProt Q9Z148: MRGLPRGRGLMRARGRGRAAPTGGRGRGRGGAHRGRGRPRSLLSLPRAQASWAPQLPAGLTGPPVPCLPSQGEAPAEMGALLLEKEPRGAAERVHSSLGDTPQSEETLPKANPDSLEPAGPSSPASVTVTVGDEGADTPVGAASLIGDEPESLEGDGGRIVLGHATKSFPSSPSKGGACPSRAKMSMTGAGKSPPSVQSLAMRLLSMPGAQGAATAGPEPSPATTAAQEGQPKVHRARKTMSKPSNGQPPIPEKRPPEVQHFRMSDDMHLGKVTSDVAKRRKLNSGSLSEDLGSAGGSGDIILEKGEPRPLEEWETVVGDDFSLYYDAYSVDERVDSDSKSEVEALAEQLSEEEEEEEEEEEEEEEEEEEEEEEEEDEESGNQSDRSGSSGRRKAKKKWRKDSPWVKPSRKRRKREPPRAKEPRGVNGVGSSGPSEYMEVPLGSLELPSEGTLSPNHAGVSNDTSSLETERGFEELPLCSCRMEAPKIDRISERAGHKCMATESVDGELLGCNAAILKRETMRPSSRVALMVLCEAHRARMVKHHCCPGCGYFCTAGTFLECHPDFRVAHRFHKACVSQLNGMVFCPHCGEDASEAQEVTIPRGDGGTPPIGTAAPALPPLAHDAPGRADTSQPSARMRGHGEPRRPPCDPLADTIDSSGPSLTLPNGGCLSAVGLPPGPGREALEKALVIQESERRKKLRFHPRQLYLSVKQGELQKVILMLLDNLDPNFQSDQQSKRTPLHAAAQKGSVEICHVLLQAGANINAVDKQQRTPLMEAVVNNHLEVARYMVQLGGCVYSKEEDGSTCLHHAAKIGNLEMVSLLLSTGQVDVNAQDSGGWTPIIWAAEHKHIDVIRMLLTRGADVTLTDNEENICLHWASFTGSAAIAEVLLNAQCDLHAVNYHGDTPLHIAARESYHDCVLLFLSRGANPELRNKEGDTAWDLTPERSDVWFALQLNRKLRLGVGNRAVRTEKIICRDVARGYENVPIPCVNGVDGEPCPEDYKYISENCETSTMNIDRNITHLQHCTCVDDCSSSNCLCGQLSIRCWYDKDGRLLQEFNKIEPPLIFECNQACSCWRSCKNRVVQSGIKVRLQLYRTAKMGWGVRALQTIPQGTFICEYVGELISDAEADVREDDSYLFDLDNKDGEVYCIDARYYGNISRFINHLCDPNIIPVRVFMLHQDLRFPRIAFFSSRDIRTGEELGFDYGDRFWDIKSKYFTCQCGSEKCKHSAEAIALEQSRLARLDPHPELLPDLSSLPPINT
UniProt Q96KQ7: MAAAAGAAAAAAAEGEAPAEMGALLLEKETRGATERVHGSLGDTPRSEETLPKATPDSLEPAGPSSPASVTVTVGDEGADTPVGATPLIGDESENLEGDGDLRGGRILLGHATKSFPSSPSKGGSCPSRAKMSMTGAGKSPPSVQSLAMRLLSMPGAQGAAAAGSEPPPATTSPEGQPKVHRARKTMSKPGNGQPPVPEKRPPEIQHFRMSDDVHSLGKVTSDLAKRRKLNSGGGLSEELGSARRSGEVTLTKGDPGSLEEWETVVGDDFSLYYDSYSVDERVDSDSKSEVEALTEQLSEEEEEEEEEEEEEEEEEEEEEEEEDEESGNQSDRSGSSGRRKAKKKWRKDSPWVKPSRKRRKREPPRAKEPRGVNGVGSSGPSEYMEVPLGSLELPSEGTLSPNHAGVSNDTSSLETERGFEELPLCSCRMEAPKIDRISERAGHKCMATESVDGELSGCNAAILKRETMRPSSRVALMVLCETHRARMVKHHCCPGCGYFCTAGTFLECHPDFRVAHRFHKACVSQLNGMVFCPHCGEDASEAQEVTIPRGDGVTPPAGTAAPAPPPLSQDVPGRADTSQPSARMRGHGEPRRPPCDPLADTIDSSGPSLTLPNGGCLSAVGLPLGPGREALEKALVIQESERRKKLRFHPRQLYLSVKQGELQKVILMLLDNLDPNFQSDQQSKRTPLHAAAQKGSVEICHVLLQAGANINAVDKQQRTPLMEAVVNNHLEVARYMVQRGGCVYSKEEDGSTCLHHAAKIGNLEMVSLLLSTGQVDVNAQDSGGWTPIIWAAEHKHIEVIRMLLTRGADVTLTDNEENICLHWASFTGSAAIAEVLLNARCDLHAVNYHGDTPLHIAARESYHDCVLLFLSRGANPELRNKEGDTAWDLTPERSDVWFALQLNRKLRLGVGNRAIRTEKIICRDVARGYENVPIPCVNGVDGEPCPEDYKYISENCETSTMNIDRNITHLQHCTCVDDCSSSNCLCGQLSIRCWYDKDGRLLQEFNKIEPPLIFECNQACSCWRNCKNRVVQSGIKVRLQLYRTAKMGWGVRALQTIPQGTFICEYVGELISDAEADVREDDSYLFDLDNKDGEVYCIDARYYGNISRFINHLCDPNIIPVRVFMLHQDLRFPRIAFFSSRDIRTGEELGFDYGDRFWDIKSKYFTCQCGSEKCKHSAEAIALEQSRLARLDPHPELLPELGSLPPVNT

Assay [2] has as its target YFP-LacI-G9a (full length, wild type) (not stated (human or mouse cDNA cloned)). Nature of the assay: LacI tethering to a lac operator array (CLTon locus), recruitment seen by fluorescence microscopy; U2OS 2-6-3 CLTon cells, condensed heterochromatic locus (no doxycycline); LacI fusion tethered, fluorescent partner scored at the locus.
Assay [3] deals with YFP-LacI-G9a-ΔSET (mouse) (UniProt Q9Z148). The description is as above.

These are yes or no findings as the source states them, for the method shown. For part of these data: Binding calls can cover weak binding; strength is not graded here. For part of these data: Tags and fused reporters may be left off the sequences shown. For part of these data: Binding seen in cells or lysates may run through a third protein.

As for “GFP-G9a-ΔSET (from UniProt Q96KQ7) (enzyme)”, in assay [1], the binding result is reported as “binds”.

B1: CFP-ORCA (protein, UniProt Q9UFC0 1-647)
chain: MGPLSARLLMQRGRPKSDRLGKIRSLDLSGLELLSEHLDPKLLCRLTQLQELDLSNNHLETLPDNLGLSHLRVLRCANNQLGDVTALCQFPKLEELSLEGNPFLTVNDNLKVSFLLPTLRKVNGKDASSTYSQVENLNRELTSRVTAHWEKFMATLGPEEEAEKAQADFVKSAVRDVRYGPESLSEFTQWRVRMISEELVAASRTQVQKANSPEKPPEAGAAHKPRARLAALKRPDDVPLSLSPSKRACASPSAQVEGSPVAGSDGSQPAVKLEPLHFLQCHSKNNSPQDLETQLWACAFEPAWEEGATSQTVATCGGEAVCVIDCQTGIVLHKYKAPGEEFFSVAWTALMVVTQAGHKKRWSVLAAAGLRGLVRLLHVRAGFCCGVIRAHKKAIATLCFSPAHETHLFTASYDKRIILWDIGVPNQDYEFQASQLLTLDTTSIPLRLCPVASCPDARLLAGCEGGCCCWDVRLDQPQKRRVCEVEFVFSEGSEASGRRVDGLAFVNEDIVASKGSGLGTICLWSWRQTWGGRGSQSTVAVVVLARLQWSSTELAYFSLSACPDKGIVLCGDEEGNVWLYDVSNILKQPPLLPAALQAPTQILKWPQPWALGQVVTKTMVNTVVANASFTYLTALTDSNIVAIWGRM
On to B1, for which the binding entry is “binds” in assay [2] and “no binding” in assay [3].

Source of the values: article PMC4442312 (eLife, 2015).
